Results from paper PMC12772503.
These are yes or no findings as the source states them, for the method shown. In cells and extracts the contact can be indirect. Binding calls can cover weak binding; strength is not graded here.

Protein sequences, listed by entry. Tags and fused reporters are not part of them. Lines headed by an entry give the natural chain unless they say otherwise; changes in a name come on top.
UniProt O18333: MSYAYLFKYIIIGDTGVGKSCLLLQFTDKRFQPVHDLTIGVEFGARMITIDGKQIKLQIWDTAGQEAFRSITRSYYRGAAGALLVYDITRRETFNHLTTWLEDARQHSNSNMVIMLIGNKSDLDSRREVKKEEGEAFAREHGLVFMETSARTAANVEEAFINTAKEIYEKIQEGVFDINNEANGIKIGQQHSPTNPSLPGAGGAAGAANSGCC

What was measured:
[1] = target: HA-tagged RUFY (Drosophila); test: co-IP; lysates (1.0 mg/ml) of transfected HEK293 cells on Pierce anti-HA magnetic beads, 2 h, 4°C; 20 mM HEPES pH 7.4, 130 mM NaCl, 2 mM MgCl2, 0.1% saponin; 60 uM GppNHp with Rab2(wt) and Rab2[Q65L] but not Rab2[S20N]; eluted with 100 mM NaOH or HA peptide; Western blot; in Fig. S2 E cells treated with 2 uM MLi-2 for 2 h or co-transfected with LRRK2^G2019S
[2] = target: myc-tagged RUFY (Drosophila); test: co-IP; lysates (1.0 mg/ml) of transfected HEK293 cells on Pierce anti-c-Myc magnetic beads, 2 h, 4°C; 20 mM HEPES pH 7.4, 130 mM NaCl, 2 mM MgCl2, 0.1% saponin, 60 uM GppNHp; washes with 0.25% then 0.1% saponin; eluted by heating in SDS-PAGE loading buffer; Western blot

binding [1] | binding [2] | Substance
binds |  | myc-Rab2^Q65L (from UniProt O18333 1-213)
 | binds weakly | HA-Rab2^Q65L (from UniProt O18333 1-213)
